Measurements taken from the supplement of paper PMC7666118.
Some of the results follow.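 How the source made its calls: active = dose-dependent thermal stabilisation significant by F-test of dose-response against flat model at 10% FDR; inactive = not significant.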

Chains of the proteins cited; added tags and fusions are not shown. Lines headed by an entry give the natural chain unless they say otherwise; changes in a name come on top.
UniProt Q8WTX7: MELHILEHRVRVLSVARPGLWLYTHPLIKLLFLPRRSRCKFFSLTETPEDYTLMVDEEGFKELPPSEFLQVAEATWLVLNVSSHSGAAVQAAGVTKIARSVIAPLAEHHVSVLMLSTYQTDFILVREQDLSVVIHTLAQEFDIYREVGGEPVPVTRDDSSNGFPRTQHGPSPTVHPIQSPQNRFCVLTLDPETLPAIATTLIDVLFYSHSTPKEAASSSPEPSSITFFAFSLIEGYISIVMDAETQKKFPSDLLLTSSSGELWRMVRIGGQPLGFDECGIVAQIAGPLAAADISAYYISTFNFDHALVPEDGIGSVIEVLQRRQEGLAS
UniProt P14854, whole entry: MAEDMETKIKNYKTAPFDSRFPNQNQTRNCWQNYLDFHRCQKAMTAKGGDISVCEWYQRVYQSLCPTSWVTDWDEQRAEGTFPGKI
UniProt Q3V6T2: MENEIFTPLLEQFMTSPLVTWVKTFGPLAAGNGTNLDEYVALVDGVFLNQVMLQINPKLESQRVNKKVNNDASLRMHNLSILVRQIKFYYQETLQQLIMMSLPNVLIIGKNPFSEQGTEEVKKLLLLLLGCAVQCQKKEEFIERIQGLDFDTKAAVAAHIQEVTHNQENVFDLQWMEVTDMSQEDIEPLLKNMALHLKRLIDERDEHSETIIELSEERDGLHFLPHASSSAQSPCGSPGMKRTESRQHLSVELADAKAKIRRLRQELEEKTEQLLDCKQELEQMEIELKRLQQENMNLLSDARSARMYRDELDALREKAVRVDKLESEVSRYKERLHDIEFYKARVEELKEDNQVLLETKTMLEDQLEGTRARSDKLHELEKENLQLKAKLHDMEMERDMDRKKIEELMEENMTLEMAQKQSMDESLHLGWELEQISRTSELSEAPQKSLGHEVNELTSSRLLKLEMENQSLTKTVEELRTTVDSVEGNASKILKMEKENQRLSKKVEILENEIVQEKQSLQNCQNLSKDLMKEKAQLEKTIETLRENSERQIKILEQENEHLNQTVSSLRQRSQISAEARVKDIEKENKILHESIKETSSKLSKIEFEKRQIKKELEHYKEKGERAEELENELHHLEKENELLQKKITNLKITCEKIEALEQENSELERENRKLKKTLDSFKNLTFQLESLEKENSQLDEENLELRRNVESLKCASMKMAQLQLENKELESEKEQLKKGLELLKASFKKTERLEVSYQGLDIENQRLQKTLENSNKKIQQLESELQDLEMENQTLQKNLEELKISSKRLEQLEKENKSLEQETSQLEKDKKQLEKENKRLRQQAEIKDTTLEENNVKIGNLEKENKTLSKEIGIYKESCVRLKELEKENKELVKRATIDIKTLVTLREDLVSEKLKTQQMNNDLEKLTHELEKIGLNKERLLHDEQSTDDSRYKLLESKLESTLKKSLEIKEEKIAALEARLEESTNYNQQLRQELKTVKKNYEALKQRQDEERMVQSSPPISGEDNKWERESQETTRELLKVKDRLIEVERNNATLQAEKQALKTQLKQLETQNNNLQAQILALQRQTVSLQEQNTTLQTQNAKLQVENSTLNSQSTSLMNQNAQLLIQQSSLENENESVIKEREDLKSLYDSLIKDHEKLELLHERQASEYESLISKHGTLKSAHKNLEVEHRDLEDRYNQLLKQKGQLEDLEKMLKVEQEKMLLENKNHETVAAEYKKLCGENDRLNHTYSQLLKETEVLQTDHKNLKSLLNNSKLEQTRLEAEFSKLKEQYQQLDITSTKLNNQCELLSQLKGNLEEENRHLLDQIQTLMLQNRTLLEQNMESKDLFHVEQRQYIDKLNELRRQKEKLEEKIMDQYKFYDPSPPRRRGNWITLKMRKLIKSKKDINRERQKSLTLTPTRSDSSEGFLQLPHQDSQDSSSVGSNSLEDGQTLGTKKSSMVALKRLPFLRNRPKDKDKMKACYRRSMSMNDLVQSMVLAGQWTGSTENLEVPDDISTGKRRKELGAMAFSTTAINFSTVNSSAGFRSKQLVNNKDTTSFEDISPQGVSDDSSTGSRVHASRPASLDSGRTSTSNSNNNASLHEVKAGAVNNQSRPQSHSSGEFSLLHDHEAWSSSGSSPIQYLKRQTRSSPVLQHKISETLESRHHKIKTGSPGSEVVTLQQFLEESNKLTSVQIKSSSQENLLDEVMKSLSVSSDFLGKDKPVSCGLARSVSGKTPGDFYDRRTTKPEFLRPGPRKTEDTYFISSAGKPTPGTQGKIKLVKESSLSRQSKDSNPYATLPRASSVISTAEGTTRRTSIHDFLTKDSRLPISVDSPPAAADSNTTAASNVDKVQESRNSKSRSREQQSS
UniProt Q8TAP6: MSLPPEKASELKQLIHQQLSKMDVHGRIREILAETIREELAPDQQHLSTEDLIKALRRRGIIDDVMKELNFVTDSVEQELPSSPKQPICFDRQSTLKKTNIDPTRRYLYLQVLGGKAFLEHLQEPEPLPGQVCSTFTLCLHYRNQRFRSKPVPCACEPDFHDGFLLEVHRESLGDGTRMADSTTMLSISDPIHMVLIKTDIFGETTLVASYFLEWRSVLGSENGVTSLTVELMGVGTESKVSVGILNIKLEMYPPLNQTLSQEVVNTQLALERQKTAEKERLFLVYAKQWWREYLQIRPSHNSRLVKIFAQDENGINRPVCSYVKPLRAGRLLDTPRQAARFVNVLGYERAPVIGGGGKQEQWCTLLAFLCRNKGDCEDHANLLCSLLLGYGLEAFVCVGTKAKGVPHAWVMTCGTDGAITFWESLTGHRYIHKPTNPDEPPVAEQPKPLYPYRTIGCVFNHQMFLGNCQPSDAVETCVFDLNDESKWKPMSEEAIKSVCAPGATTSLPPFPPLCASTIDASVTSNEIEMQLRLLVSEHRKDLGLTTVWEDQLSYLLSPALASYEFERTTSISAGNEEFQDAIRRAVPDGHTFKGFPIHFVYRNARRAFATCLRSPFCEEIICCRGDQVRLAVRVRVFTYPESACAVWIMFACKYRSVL
UniProt Q12834, whole entry: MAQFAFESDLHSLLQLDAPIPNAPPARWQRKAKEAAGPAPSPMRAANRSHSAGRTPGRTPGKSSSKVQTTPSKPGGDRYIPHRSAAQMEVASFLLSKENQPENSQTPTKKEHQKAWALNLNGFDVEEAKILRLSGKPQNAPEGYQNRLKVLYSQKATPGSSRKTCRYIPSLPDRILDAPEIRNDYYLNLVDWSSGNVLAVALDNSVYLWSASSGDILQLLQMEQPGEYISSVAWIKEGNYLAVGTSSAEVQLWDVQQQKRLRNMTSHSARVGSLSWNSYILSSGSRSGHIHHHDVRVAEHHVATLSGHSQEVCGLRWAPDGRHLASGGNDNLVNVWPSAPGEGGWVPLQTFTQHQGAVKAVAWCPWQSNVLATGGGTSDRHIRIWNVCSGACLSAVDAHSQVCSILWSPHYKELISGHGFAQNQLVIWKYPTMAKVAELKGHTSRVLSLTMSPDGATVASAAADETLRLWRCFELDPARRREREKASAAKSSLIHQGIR
UniProt Q9P000, whole entry: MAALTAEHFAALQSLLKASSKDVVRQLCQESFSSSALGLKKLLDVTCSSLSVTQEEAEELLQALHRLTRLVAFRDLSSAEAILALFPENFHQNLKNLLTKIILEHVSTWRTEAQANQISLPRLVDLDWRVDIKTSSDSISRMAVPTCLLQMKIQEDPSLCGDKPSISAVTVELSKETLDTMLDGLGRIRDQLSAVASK
UniProt O75909: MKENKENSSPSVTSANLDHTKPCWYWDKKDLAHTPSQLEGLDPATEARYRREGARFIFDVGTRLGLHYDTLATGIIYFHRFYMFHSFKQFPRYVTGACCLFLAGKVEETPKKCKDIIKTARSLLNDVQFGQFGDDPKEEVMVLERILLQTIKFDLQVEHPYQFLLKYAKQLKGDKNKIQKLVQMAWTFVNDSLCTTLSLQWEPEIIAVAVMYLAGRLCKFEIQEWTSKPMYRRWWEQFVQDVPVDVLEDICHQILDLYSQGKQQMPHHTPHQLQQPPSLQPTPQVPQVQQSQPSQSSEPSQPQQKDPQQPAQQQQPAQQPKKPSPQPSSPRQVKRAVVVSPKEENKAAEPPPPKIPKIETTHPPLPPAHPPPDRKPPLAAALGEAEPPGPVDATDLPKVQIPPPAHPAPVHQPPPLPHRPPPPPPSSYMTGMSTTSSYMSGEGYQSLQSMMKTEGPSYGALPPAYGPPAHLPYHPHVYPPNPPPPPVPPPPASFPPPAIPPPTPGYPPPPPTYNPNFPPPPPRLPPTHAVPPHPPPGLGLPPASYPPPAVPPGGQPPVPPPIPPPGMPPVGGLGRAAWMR
UniProt Q9Y678: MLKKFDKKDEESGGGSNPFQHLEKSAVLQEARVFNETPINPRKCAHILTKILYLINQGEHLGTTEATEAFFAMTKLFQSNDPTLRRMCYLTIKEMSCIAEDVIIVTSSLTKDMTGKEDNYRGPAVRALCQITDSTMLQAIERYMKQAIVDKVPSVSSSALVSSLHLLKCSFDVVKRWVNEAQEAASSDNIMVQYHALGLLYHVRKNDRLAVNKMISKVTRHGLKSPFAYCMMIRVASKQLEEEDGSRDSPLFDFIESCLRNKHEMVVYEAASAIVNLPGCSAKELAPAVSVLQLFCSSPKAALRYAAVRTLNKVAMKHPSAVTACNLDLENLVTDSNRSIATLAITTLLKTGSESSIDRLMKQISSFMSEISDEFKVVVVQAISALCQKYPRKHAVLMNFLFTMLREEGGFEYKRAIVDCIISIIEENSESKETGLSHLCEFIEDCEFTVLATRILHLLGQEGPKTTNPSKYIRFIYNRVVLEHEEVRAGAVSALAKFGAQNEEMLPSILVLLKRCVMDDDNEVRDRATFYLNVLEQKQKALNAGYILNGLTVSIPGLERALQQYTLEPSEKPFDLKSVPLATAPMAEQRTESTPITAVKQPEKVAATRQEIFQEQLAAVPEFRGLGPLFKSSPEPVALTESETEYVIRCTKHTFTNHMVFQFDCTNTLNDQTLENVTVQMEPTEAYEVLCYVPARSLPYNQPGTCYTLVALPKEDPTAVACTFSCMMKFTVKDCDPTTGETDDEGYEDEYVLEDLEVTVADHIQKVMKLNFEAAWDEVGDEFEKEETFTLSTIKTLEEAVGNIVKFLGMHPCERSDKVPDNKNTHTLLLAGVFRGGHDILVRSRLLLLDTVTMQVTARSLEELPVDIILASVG
UniProt P61024, whole entry: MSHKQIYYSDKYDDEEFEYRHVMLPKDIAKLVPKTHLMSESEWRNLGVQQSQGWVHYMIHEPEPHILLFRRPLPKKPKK
UniProt Q9P2I0: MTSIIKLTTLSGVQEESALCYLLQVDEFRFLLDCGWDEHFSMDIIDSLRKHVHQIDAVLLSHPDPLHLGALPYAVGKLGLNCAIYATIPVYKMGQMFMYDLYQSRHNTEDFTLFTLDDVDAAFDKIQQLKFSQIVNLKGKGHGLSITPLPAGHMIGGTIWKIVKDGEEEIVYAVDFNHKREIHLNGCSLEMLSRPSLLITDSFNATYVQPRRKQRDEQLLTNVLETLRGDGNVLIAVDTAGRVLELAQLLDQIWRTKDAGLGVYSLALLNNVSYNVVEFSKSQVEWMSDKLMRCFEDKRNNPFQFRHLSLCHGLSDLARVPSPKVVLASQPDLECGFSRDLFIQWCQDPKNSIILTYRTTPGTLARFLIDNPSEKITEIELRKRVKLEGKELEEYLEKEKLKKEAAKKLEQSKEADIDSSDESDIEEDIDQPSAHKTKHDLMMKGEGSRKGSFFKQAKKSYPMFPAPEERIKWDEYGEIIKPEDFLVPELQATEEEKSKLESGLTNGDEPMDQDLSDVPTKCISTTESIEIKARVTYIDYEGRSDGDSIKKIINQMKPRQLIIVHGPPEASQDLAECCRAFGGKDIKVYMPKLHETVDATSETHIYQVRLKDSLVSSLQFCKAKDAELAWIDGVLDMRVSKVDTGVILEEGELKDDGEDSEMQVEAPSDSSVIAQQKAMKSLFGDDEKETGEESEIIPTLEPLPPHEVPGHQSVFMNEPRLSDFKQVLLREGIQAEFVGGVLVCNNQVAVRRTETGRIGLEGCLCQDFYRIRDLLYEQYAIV
UniProt P30085: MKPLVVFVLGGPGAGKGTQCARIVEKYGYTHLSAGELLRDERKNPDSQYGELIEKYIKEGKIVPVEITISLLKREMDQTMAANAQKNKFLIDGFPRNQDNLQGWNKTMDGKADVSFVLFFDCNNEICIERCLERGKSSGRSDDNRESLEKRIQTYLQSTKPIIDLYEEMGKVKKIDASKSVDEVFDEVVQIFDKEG
UniProt Q7Z6B0: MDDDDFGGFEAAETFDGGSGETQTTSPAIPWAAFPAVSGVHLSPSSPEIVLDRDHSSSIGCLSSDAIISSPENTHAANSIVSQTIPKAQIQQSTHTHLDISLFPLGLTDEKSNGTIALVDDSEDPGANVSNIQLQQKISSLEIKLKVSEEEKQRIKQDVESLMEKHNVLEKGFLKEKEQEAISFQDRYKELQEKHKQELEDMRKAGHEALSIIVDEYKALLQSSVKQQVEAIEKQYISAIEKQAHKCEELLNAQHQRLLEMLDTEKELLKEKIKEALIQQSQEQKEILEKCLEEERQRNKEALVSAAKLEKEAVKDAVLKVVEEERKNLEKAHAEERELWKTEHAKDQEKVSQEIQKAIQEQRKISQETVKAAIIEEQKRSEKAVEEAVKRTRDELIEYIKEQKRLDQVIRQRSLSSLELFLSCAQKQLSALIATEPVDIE

Each target was assayed with Nc1nc2c(ncn2[C@@H]2O[C@H](COP(=O)(O)OP(=O)(O)OP(=O)(O)O)[C@@H](O)[C@H]2O)c(=O)[nH]1 (assay: dose-dependent thermal stabilisation call (2D-TPP, DLPTP, 10% FDR) (binary (1 = stabilised)); higher = stabilised by the compound). Details: system: Jurkat gel-filtered lysate; concentration range 1-500 µM.
Protocol: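 2D thermal proteome profiling in gel-filtered Jurkat E6.1 lysate (2 mg/ml) treated with NaGTP (0, 1, 10, 100, 500 uM) for 10 min at room temperature, then heated 3 min at one of 12 temperatures (42-63.9 C). Soluble protein was quantified by TMT10 MS. The value is the DLPTP call of the paper: dose-dependent thermal stabilisation over all temperatures at 10% FDR (F-test of a dose-response against a flat model); one experiment, one call per tested protein.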

Target	dose-dependent thermal stabilisation call
CHMP7 (UniProt Q8WUX9)	active: 1
CC2D1B (UniProt Q5T0F9)	inactive: 0
CIC (UniProt Q96RK0)	inactive: 0
CDKN2C (UniProt P42773)	inactive: 0
CASTOR1 (UniProt Q8WTX7)	inactive: 0
CDK4 (UniProt P11802)	inactive: 0
CETN3 (UniProt O15182)	inactive: 0
COX6B1 (UniProt P14854)	inactive: 0
CGGBP1 (UniProt Q9UFW8)	inactive: 0
CCDC88A (UniProt Q3V6T2)	inactive: 0
CCDC9 (UniProt Q9Y3X0)	inactive: 0
CNPY3 (UniProt Q9BT09)	inactive: 0
COPS8 (UniProt Q99627)	inactive: 0
CEP76 (UniProt Q8TAP6)	inactive: 0
CHERP (UniProt Q8IWX8)	inactive: 0
CDC20 (UniProt Q12834)	inactive: 0
CASC3 (UniProt O15234)	inactive: 0
CHMP4B (UniProt Q9H444)	inactive: 0
CENPC (UniProt Q03188)	inactive: 0
CCDC43 (UniProt Q96MW1)	inactive: 0

Target	dose-dependent thermal stabilisation call
COMMD9 (UniProt Q9P000)	inactive: 0
CBX1 (UniProt P83916)	inactive: 0
CCNK (UniProt O75909)	inactive: 0
CHCHD2 (UniProt Q9Y6H1)	inactive: 0
CENPH (UniProt Q9H3R5)	inactive: 0
CHURC1 (UniProt Q8WUH1)	inactive: 0
COPG1 (UniProt Q9Y678)	inactive: 0
COMMD3 (UniProt Q9UBI1)	inactive: 0
CKS1B (UniProt P61024)	inactive: 0
CFL2 (UniProt Q9Y281)	inactive: 0
CC2D1A (UniProt Q6P1N0)	active: 1
CLIP4 (UniProt Q8N3C7)	inactive: 0
CEP112 (UniProt Q8N8E3)	inactive: 0
CPSF2 (UniProt Q9P2I0)	active: 1
CMPK1 (UniProt P30085)	inactive: 0
CCDC91 (UniProt Q7Z6B0)	inactive: 0
CDK1 (UniProt P06493)	inactive: 0
CBL (UniProt P22681)	inactive: 0
CEP41 (UniProt Q9BYV8)	inactive: 0
COG1 (UniProt Q8WTW3)	inactive: 0

Individual results from the list:
Under dose-dependent thermal stabilisation call, CASC3 (UniProt O15234) shows inactive: 0
Under dose-dependent thermal stabilisation call, CNPY3 (UniProt Q9BT09) shows inactive: 0
Under dose-dependent thermal stabilisation call, CBL (UniProt P22681) shows inactive: 0
